Laboratory results reported in US20050203007A1.
Results are given in words; binding and its absence hold for the method and conditions named. Some entries that bind do so weakly or less than the wild type.

T1: human PC7 (human) (UniProt Q16549)
T1 sequence (looked up): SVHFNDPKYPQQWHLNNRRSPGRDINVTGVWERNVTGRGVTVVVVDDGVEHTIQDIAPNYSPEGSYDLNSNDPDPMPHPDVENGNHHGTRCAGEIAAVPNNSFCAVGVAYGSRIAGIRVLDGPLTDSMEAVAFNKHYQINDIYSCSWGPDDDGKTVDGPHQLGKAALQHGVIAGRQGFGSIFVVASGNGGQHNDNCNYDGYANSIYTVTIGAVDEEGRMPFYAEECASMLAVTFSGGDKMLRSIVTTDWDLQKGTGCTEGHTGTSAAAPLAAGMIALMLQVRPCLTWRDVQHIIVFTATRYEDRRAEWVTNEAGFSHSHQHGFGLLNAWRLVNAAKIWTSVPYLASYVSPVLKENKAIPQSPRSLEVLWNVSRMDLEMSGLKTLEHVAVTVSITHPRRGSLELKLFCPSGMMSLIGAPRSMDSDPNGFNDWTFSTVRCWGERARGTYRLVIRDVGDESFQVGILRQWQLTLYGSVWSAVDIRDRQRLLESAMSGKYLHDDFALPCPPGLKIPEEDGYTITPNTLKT


Each binder was assayed against T1, human PC7 (human) (assay: Ki of purified variants).

Row | binding | Binder
1 | binds | Trp49-R4R1-eglin (designed binder) SMGSELKSFPEVVGKTVDQAREYFTLHYPQYDVYFLPEGSRVTRDLRWNRVRVFYNPGTNVVNHVPHVG

Each binder was assayed against T1, human PC7 (human) (assay: rapid inhibition assay; listed as potent inhibitor of PC7).

Row | Binder | binding
2 | Tyr49Ala-R4R1-eglin (designed binder) SMGSELKSFPEVVGKTVDQAREYFTLHYPQYDVYFLPEGSRVTRDLRANRVRVFYNPGTNVVNHVPHVG | binds
3 | Met49-R4R1-eglin (designed binder) SMGSELKSFPEVVGKTVDQAREYFTLHYPQYDVYFLPEGSRVTRDLRMNRVRVFYNPGTNVVNHVPHVG | binds
4 | Trp49-R4R1-eglin (designed binder) SMGSELKSFPEVVGKTVDQAREYFTLHYPQYDVYFLPEGSRVTRDLRWNRVRVFYNPGTNVVNHVPHVG | binds

Further lines, results first:

Row | binding | Binder
5 | binds | Val49-R4R1-eglin (Tyr49 to Val) (designed binder) SMGSELKSFPEVVGKTVDQAREYFTLHYPQYDVYFLPEGSRVTRDLRVNRVRVFYNPGTNVVNHVPHVG
6 | binds | Pro38Leu Tyr49Cys R4R1-eglin (designed binder) SMGSELKSFPEVVGKTVDQAREYFTLHYPQYDVYFLLEGSRVTRDLRCNRVRVFYNPGTNVVNHVPHVG
